Test results: PubChem BioAssay AID504444 (National Center for Advancing Translational Sciences (NCATS), 2011)
Values joined by “and” are separate entries in the source; they are usually repeats but may differ in a detail not shown here. Identical values can stand only once. The campaign covered roughly 360,000 compounds. About 7,500 (2.1%) were called active. Inconclusive means that the source gave no clear call. Such entries were picked first, then a sample of the others. Calls follow the shape of the dose curve; as a rule, active = well fitted inhibition curve with a large enough effect; inconclusive = small, poorly fitted or top-dose-only effect, or effect the other way; inactive = flat fitted curve, though single readings scatter. Where the call is inconclusive, the potency comes from a doubtful curve fit.

Experiment: Nrf2 qHTS screen for inhibitors; also: nearly all actives have a fitted effect of over 60% in size
Details: A549 ARE-Fluc reporter, luciferase luminescence, 18-24 h; activity change, negative = inhibition: at 46 µM (top of the series)
Procedure, shortened: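 Concentration-response testing used A549 ARE_Fluc cells at 5000 cells/well. Following an 18-24 h compound incubation, viability was read by fluorescence (Ex 405/Em 525) and luciferase output by luminescence.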
% is scaled to controls: 0 for no effect and ±100 for the full control effect; potency is read from the fitted curve at half-maximal effect.

| Structure (SMILES) | Potency | activity change, negative = inhibition |
| --- | --- | --- |
| COc1ccc2c(c1)c(/C=C/c1cc[n+](C)cc1)cn2C | active: 11.6 µM |  |
| CCOC(=O)C(Cc1ccccc1)c1ccnc2ncnn12 (stereo not given) | inconclusive: 23.1 µM [activator, single point] |  |
| CC(=O)c1c(C)[nH]c(C(=O)OCC(=O)Nc2c(C)n(C)n(-c3ccccc3)c2=O)c1C | inactive |  |
| C=CCn1c(C)c(C(C)=O)c(N2CCCC2)nc1=S |  | inconclusive: 30.2% [activator] |
| O=C(Nc1scc(-c2ccccc2)c1C(=O)O)c1ccc(F)cc1 | inconclusive: 2.06 µM [activator, single point] |  |
| Cc1ccc(Cl)cc1N1CCN(C(=O)c2ccc(NC3=NC4CS(=O)(=O)CC4S3)cc2)CC1 (stereo not given) | inconclusive: 23.1 µM [falling, partial curve, poor fit] |  |
| Cc1ccc(S(=O)(=O)N2CCN(C(=O)CSc3nc4ccccc4c(=O)[nH]3)CC2)c(C)c1 | inconclusive: 13 µM [falling, partial curve, poor fit] |  |
| CCCCCSc1nncc(=O)[nH]1 | inconclusive: 0.0052 µM [falling, full curve, poor fit] |  |
| CC1(O)C(=O)c2ccccc2N(c2ccccc2)C1=O (stereo not given) | inconclusive: 2.59 µM [activator, single point] |  |
| Cn1c(=N)n(CC(=O)c2cccs2)c2ccccc21 | inconclusive: 9.2 µM [activator, partial curve] |  |
| c1ccc(N=Nc2ccc3cccccc2-3)cc1 | inactive |  |
| Cc1cc(S(=O)(=O)N2CCCCC2)ccc1OCC(=O)Nc1ccccc1 | inconclusive: 23.1 µM [falling, partial curve] |  |
| CCOC(=O)N1CCc2c(sc3c2c(=O)n(Cc2ccccc2)c(=O)n3Cc2ccc(C)cc2)C1 | inconclusive: 32.6 µM [falling, single point] |  |
| COc1ccc(CNC(=O)C2=C(C)C(=O)OC23CCN(C(C)=O)CC3)cc1 | inconclusive: 29.1 µM [activator, single point] |  |
| CSc1ccc(CNC(=O)CCc2c(C)nn(-c3ccc(N4CCCC4)nn3)c2C)cc1 | inactive |  |
| O=C(O)CCC(=O)N(Cc1cccnc1)Cc1cccc(F)c1 | inconclusive: 0.411 µM [falling, full curve, poor fit] |  |
| CSc1nc2n(n1)C(c1cccs1)C1=C(CCCC1=O)N2 (stereo not given) | inactive |  |
| COc1ccc(CNC(=O)CSc2n[nH]c(N)n2)cc1 | inconclusive: 6.51 µM [activator, single point] |  |
| COc1ccc(C2Nc3ccccc3C(=O)N2Cc2cccnc2)cc1COc1ccc(NC(C)=O)cc1 (stereo not given) | inconclusive: 11.6 µM [falling, partial curve, poor fit] |  |
| CCCCCCCCn1c(=O)c(C(=O)OC)c(N)c2ccccc21 | inconclusive: 20.6 µM [falling, single point] |  |
| CC(=O)NC(=O)COC(=O)/C=C/c1c(C)nn(Cc2c(Cl)cccc2Cl)c1Cl | inconclusive: 5.8 µM [activator, full curve, poor fit] |  |
| Cc1cc(C)nc(N/N=C/c2c[nH]c3ccccc23)n1 | inconclusive: 20.6 µM [activator, single point] |  |

| Structure (SMILES) | Potency | activity change, negative = inhibition |
| --- | --- | --- |
| Nc1ncnc2nc[nH]c12 | inconclusive: 29.1 µM [activator, single point] and inconclusive: 25.9 µM [activator, partial curve, poor fit] |  |
| CCCCc1cc(=O)oc2c(C)c(OCC(=O)N3CCC(C(N)=O)CC3)ccc12 | inconclusive: 25.9 µM [falling, single point] |  |
| C=CCOC(=O)N1CCC2CC1c1cc(-c3ccc(OC)cc3)ccc12 (stereo not given) | inconclusive: 29.1 µM [falling, single point] |  |
| O=[N+]([O-])c1cccc(-c2nc3ccc([N+](=O)[O-])cc3[nH]2)c1 | inactive |  |
| O=C(CC1C[C@H](C(=O)N2CCCCC2)[C@@]2(CCc3ccccc3)c3[nH]c4ccccc4c3CCN2C1=O)NCc1ccco1 (stereo not given in full) | inconclusive: 16.4 µM [falling, partial curve, poor fit] |  |
| CCOC(=O)c1c(C)[nH]c(C(=O)OC(C)C(=O)NC2CCCCC2C)c1C (stereo not given) | inconclusive: 23.1 µM [falling, single point] |  |
| C[C@H](CO)N1C[C@H](C)[C@@H](CN(C)C(=O)Nc2ccc(C(F)(F)F)cc2)Oc2c(NC(=O)Nc3ccc4c(c3)OCO4)cccc2C1=O | inconclusive: 36.6 µM [falling, partial curve, poor fit] |  |
| Cc1ccc(N/C=C(\C#N)S(=O)(=O)c2ccccc2)cc1 | inconclusive: 29.1 µM [activator, single point] |  |
| Cc1nc2c(c(C)nn2-c2ccccc2)c(C)c1CCC(=O)NCCc1ccc(Cl)cc1 | inconclusive: 20.6 µM [falling, single point] |  |
| CCn1cc(Cl)c(C(=O)Nc2nccs2)n1 | inconclusive: 5.8 µM [activator, partial curve] |  |
| CCOC(=O)c1ccc(NC(=S)N2CCN(c3ccccn3)CC2)cc1 | inactive |  |
| N#Cc1nc(Nc2ccc(Br)cc2)nc(NC2CCCC2)n1 | inconclusive: 29.1 µM [falling, single point] |  |
| COc1cc(C2NC(=O)c3c(sc4c3CCN(C)C4)N2)ccc1OC(=O)c1ccccc1 (stereo not given) | inconclusive: 18.4 µM [activator, partial curve] |  |
| COc1ccc(NC(=O)c2ccccc2)cc1 | inconclusive: 2.06 µM [activator, partial curve, poor fit] |  |
| CCN(CC)C(=O)CSc1nc2ccsc2c(=O)n1CCCC(=O)NCCc1ccc(S(N)(=O)=O)cc1 | inconclusive: 29.1 µM [falling, single point] |  |
| Cc1c(NC(=O)c2ccc(Br)o2)cccc1-c1nc2ccccc2o1 | inconclusive: 13 µM [falling, partial curve, poor fit] |  |
| COCCNC(=O)/C(C#N)=C/c1ccc(O)c([N+](=O)[O-])c1 | inactive |  |
| Cc1ccc(NC(=O)c2ccc(S(=O)(=O)C(F)F)cc2)c(C)c1 | inconclusive: 20.6 µM [activator, single point] |  |
| COC(=O)c1ccc(-c2nc3ccc(C)cc3o2)cc1 | inconclusive: 0.461 µM [activator, full curve] |  |
| Cc1ccc(C(=O)NC(C)c2nnc(SCC(=O)NC3CCCC3)n2C)cc1 (stereo not given) | inactive |  |
| COc1ccc2nc(SCC(=O)/C(C#N)=C(\C)N)[nH]c2c1 | inconclusive: 2.31 µM [activator, full curve] |  |
| CCCOc1cccc(C(=O)Nc2ccc(-c3cc4ccccc4oc3=O)c(C)c2)c1 | inconclusive: 29.1 µM [falling, single point] |  |

| Structure (SMILES) | Potency | activity change, negative = inhibition |
| --- | --- | --- |
| O=C(CCCN1C(=O)/C(=C/c2cccs2)SC1=S)NNC(=O)c1ccc(F)cc1 | inconclusive: 16.4 µM [falling, single point] |  |
| Cc1ccsc1C(=O)OCC(=O)N1CCc2ccccc2C1 | inconclusive: 23.1 µM [activator, single point] |  |
| Cc1cc(C)c2nc(-n3nc(C)cc3N)cc(C)c2c1 | inconclusive: 11.6 µM [activator, partial curve] |  |
| Cc1ccc(S(=O)(=O)c2cc3c(=O)n4ccccc4nc3n(C3CCCCC3)c2=N)cc1 | inconclusive: 3.66 µM [activator, single point] |  |
| O=C(/C(=N/N=C/c1ccc(O)c(O)c1O)c1ccccc1)c1ccccc1 | inconclusive: 29.1 µM [falling, single point] |  |
| Cc1ccc(/C=C/c2nnc(-c3cccc(C)c3)o2)cc1 | inactive |  |
| Cc1cc(/C(N)=N/OC(=O)Nc2ccc(Cl)cc2)no1 | inconclusive: 23.1 µM [activator, single point] |  |
| COc1ccc(C(=O)C(CN2CCOCC2)c2ccccc2)cc1 (stereo not given) | inconclusive: 25.9 µM [falling, partial curve, poor fit] |  |
| COc1ccc(NC(=O)c2c(N)no[n+]2[O-])c(OC)c1 | inactive |  |
| CCOC(=O)c1ccc(NC(=O)C2=C(C)C(=O)OC23CCCCCC3)cc1 | inconclusive: 20.6 µM [activator, partial curve] |  |
| O=C(N/C(=C/c1ccc(Cl)cc1)c1nc2ccccc2[nH]1)c1ccco1 | inactive |  |
| O=C(Cc1c(Cl)cccc1Cl)OCc1ccccn1 | inactive |  |
| CN(C(=O)CSc1nc2ccc(NC(=O)COc3ccc(F)cc3)cc2s1)c1ccccc1 | inconclusive: 29.1 µM [falling, single point] |  |
| COC(=O)C1=NNC2(c3ccc(C)cc3)C(=O)N(c3ccc(C)cc3)C(=O)C12 (stereo not given) | inconclusive: 29.1 µM [falling, single point] |  |
| Cc1ccc(S(=O)(=O)Nc2cc(Br)cc3cccnc23)cc1 | inconclusive: 29.1 µM [falling, single point] |  |
| Cc1ccc(N=Nc2[nH]c3ccccc3c2O)cc1 | inconclusive: 29.1 µM [activator, single point] |  |
| COc1ccc(-c2[nH]ncc2/C=C(/C#N)C(=O)NC2CCCCC2)cc1 | inconclusive: 16.4 µM [falling, single point] |  |
| O=C(NC(=S)Nc1cccc(F)c1)c1cccc([N+](=O)[O-])c1 | inconclusive: 2.91 µM [activator, partial curve] |  |
| Cc1cc(C)nc(Nc2nc3ccccc3o2)n1 | inconclusive: 10.3 µM [activator, partial curve, poor fit] |  |
| COc1cccc(COc2ccc3ccc(=O)oc3c2)c1 | inconclusive: 29.1 µM [activator, single point] |  |
| COc1ccc(C)cc1NC(=O)COC(=O)c1c(C)nn(-c2ccccc2)c1C | inconclusive: 11.6 µM [falling, partial curve, poor fit] |  |
